# PubChem BioAssay AID743454 – Peter MacCallum Cancer Centre – 2014
# Assay: 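Search for knock-downs that restore vorinostat killing in resistant colon cancer cells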 (primary screen)
# Cells: human HCT116-VR colon cancer cells, selected for vorinostat resistance
# Reagent: siRNA pool against human genes, 40 nM siRNA pool
# Duration: vorinostat for 24 h, read-out about 72 h after transfection
# Treatment: vorinostat at 2.5 µM final
# Measurement: 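Cell viability by CellTiter-Fluor and caspase 3/7 activity by luminescence, each scaled to mock wells per plate, duplicates averaged, then robust z-scored over all plates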
# Reading the numbers: viability robust z-score: higher = more viable cells than screen typical; caspase robust z-score: higher = more caspase 3/7 activity than screen typical
# Active means: 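Hits are knock-downs in viability class RV1/RV2 or caspase class CA1/CA2, excluding ones that killed cells in the no-drug cell-count arm; hits then retested with single siRNAs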
# This is one part, drawn at random, of about 18,000 reagents tested. Over the whole deposit, 450 (2.5%) got an active call. 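Single biological run; no consistent viability z cut-off exists, so the class columns, not z-scores, define the calls.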 Unmarked entries are inactive.
The first 2 entries as a preview:
gene,viability hit class,caspase hit class,viability robust z-score,caspase robust z-score
TMEM217,no change,no change,0.31,2.34
SGCE,no change,no change,-0.23,-0.03

Results, from the start:
gene,viability hit class,caspase hit class,viability robust z-score,caspase robust z-score
TMEM217,no change,no change,0.31,2.34
SGCE,no change,no change,-0.23,-0.03
LIMS1,no change,no change,0.18,-0.44
IRF2BP1,no change,no change,-0.98,2.23
IQSEC1,RV2 (reduced viability) (active),no change,-3.28,2
XPC,no change,no change,0.86,-0.72
FIP1L1,no change,no change,-2.04,1.66
PAK2,no change,no change,2,-0.28
TMEM200C,no change,no change,-0.45,3.3
PCDHGA3,no change,no change,0.63,-0.3
VIM,no change,no change,-0.21,0.97
CCDC88A,RV2 (reduced viability) (active),no change,-3.28,0.2
PRUNE1,no change,no change,-1.25,2.08
H4C11,no change,no change,0.66,0.25
ANKRD46,no change,no change,0.63,1.06
WDR19,no change,no change,1.14,-0.74
RPS2,no change,no change,-3.84,-1.21
MYO15A,no change,no change,0.25,0.26
CRYGA,no change,no change,-0.23,-0.14
MAN2A1,no change,no change,0.55,0.1
DOCK8,no change,no change,1.07,1.73
LOC644006,no change,no change,-0.2,0
MAPRE2,no change,no change,-1.02,0.79
